Measured values taken from PubChem BioAssay AID743255 (National Center for Advancing Translational Sciences (NCATS), 2014).
Out of some 390,000 compounds screened, about 910 (0.23%) were called active. Inconclusive results, whose numbers are uncertain, are shown with a selection of clear calls. Calls follow the shape of the dose curve; as a rule, active = well fitted inhibition curve with a large enough effect; inconclusive = small, poorly fitted or top-dose-only effect; inactive = no such curve, though single readings can be large or run the other way. Where the call is inconclusive, the potency comes from a doubtful curve fit. A structure can be active in one record and inactive in another.

Amino acid sequences for entries named in this document (tags omitted). A change or cut given only in a name is not applied to a line headed by its entry.
UniProt O94782: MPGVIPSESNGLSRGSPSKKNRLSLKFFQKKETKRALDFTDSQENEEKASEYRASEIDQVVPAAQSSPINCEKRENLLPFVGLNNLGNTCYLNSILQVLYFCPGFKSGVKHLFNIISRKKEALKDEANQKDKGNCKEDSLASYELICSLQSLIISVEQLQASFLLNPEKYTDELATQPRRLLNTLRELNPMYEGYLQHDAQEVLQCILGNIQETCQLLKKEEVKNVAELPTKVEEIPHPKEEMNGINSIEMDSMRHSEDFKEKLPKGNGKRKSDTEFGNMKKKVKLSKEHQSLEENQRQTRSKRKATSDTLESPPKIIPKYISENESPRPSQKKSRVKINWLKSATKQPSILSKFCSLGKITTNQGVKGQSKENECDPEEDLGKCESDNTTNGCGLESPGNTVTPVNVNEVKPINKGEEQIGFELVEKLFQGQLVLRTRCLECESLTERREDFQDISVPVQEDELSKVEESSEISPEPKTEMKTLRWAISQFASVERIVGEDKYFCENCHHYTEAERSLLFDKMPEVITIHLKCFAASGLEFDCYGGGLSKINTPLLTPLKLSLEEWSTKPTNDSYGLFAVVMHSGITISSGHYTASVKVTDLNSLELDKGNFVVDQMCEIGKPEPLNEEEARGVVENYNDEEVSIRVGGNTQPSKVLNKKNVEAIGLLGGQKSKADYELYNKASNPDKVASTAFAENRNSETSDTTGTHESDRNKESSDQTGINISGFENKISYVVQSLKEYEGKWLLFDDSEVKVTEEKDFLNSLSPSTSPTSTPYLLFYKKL

target: Ubiquitin carboxyl-terminal hydrolase 1 (Homo sapiens) (UniProt O94782); assay: Inhibitors of USP1/UAF1: Primary Screen; conditions: recombinant USP1/UAF1, Ub-Rhodamine cleavage fluorescence; activity change, negative = inhibition: at 57.1 µM (top of the series); also: nearly all actives have a fitted effect of over 60% in size
How it was run: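 In this screen, compounds sit with the deubiquitinase complex (1nM) for 15 min at room temperature before Ub-Rho is added at 150nM final. Fluorescence rise is then followed for 6 reads every 60 seconds.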
% is scaled to controls: 0 for no effect and ±100 for the full control effect; potency is read from the fitted curve at half-maximal effect.

| Compound | Potency | activity change, negative = inhibition |
| --- | --- | --- |
| O=C(NC1(O)C(=O)c2ccccc2C1=O)c1ccccc1 | active: 17.8 µM |  |
| CCOC(=O)/C=c1\s/c(=C\c2ccc3cc(OC)ccc3c2)c(=O)n1CC(=O)NCC1CCCO1 (stereo not drawn) | inconclusive: 17.8 µM [inhibitor, partial curve] |  |
| Cc1ccc(NC(=O)C2CCN(S(=O)(=O)c3c(C)noc3C)CC2)cc1C | inconclusive: 5.01 µM [inhibitor, full curve, poor fit] |  |
| CCOC(=O)c1cc(C#N)c(SCC(N)=O)[nH]c1=O | inconclusive: 44.7 µM [inhibitor, partial curve, poor fit] |  |
| COc1cccc(NC(=O)CN2C(=O)C3(SCC(=O)N3c3cc(C)cc(C)c3)c3ccccc32)c1 (stereo not drawn) | inconclusive: 0.355 µM [inhibitor, full curve, poor fit] |  |
| CCn1c2c(c(=O)n3ncc(C(=O)Nc4ccc(F)c(Cl)c4)c13)CN(Cc1ccc(OC)cc1)CC2 | inconclusive: 0.447 µM [inhibitor, full curve, poor fit] |  |
| Cc1cccc(CCNC(=O)c2nc(-c3ccc(Cl)cc3)n3c2CCCCC3)c1 | inconclusive: 70.8 µM [inhibitor, partial curve, poor fit] |  |
| CN1CCc2c(sc3c2C(=O)NC(c2ccc(-c4ccc(Cl)cc4)o2)N3)C1 (stereo not drawn) | inconclusive: 12.6 µM [inhibitor, partial curve] |  |
| COc1ccc(Br)cc1CNC(=O)c1cc2c(=O)n(C)c3ccccc3c2s1 | inconclusive: 56.2 µM [inhibitor, partial curve, poor fit] |  |
| Cc1[nH]c(=O)[nH]c(=S)c1C(=O)Nc1ccc(Cl)c(Cl)c1 |  | inactive: -20.2% |
| COc1cccc(-n2nnnc2SCC(=O)NCc2ccc3c(c2)OCO3)c1 | inconclusive: 39.8 µM [inhibitor, partial curve, poor fit] |  |
| COc1ccccc1N1CCN(C(=O)c2cc3c(=O)n(Cc4cccnc4)ccc3nc2C)CC1 |  | inactive: -19% |
| O=C(Cn1c(=O)n(-c2ccccc2)c(=O)c2c3c(sc21)CCCC3)Nc1ccc(F)cc1 | inconclusive: 50.1 µM [inhibitor, partial curve, poor fit] |  |
| CC(C)OCCCn1c(=N)c(C(N)=S)cc2c(=O)n3ccccc3nc21 | inconclusive: 12.6 µM [inhibitor, partial curve] |  |
| NC(=O)C1C2CCC(C2)C1C(N)=O (stereo not drawn) | inconclusive: 7.94 µM [inhibitor, full curve, poor fit] |  |
| CC1=C(C(=O)OC2CCCC2)C(c2cccc(Cl)c2Cl)CC(=O)N1 (stereo not drawn) | inconclusive: 44.7 µM [inhibitor, partial curve, poor fit] |  |
| COc1cccc2cc(/C(=N/O)c3ccccc3)oc12 |  | inactive: 0.444% |
| CC(=O)N(\C=C/C=C/C=C1\Sc2ccccc2C1=O)c1ccccc1 | inconclusive: 17.8 µM [inhibitor, partial curve, poor fit] |  |
| COc1cc(-c2cc(=O)c3c(O)c(OC)c(OC)cc3o2)cc(OC)c1O |  | inconclusive: -28.5% [inhibitor] |
| OC(c1cc(-c2ccc(C(F)(F)F)cc2)nc(C(F)(F)F)c1)C1CCCCN1 (stereo not drawn) |  | inactive: -10.1% |
| CSc1nnnn1CCn1nnnc1SC |  | inactive: -15.6% |

| Compound | Potency | activity change, negative = inhibition |
| --- | --- | --- |
| Nc1nc(SCC(=O)Nc2cccc([N+](=O)[O-])c2)n[nH]1 |  | inactive: -13.3% |
| COc1ccc(NC(=O)c2ccc(Br)o2)cc1 | inconclusive: 3.16 µM [inhibitor, full curve, poor fit] |  |
| CC(=O)c1ccc(OC(=O)c2c(-c3ccccc3Cl)noc2C)cc1 |  | inactive: -15.6% |
| COc1cc(NC(=O)c2onc(C)c2Cl)c(OC)cc1Cl | inconclusive: 0.794 µM [inhibitor, full curve, poor fit] |  |
| CCc1ccc(S(=O)(=O)c2nnn3c2nc(NCCC(C)C)c2cc(Cl)ccc23)cc1 | inconclusive: 3.98 µM [inhibitor, partial curve] |  |
| CCOC(=O)c1c(C)[nH]c(C(=O)OCC(=O)N(C)CC(=O)Nc2ccccc2Cl)c1C | inconclusive: 6.31 µM [inhibitor, single point] |  |
| COc1ccc(-n2c(SCC(=O)Nc3cccc4ccccc34)nc(O)cc2=O)cc1 | inconclusive: 35.5 µM [inhibitor, partial curve, poor fit] |  |
| CCN1CCN(S(=O)(=O)c2ccc(S(=O)(=O)NCC3CCCO3)cc2)CC1 (stereo not drawn) | inconclusive: 5.62 µM [inhibitor, partial curve] |  |
| CC(C)C[C@H]1CNC(=S)N1CC1CCN(CCCC2CCCCC2)CC1 |  | inactive: -11.2% |
| CC1=Nc2ccccc2/C1=C\c1nc(-c2ccc(C(F)(F)F)cc2)oc1O | active: 12.6 µM |  |
| Cc1cccc(C)c1OCc1cc(C(=O)N2CCN(Cc3nccn3C)CC2)no1 | inconclusive: 3.98 µM [inhibitor, full curve, poor fit] |  |
| O=[N+]([O-])c1ccc(NN=Cc2cccc3ccccc23)cc1 | inconclusive: 22.4 µM [inhibitor, partial curve, poor fit] |  |
| CCOC(=O)c1ccccc1N/C=C/C(=O)c1cccs1 | inconclusive: 35.5 µM [inhibitor, partial curve] |  |
| N/C(Cc1ccc([N+](=O)[O-])cc1)=N\OC(=O)COc1ccccc1Cl |  | inactive: -8.77% |
| Cc1cc(/C=C2\NC(=O)NC2=O)c(C)n1-c1ccc(N2CCOCC2)cc1 | inconclusive: 39.8 µM [inhibitor, single point] |  |
| COc1cccc(-c2sc3ccc(OC)cc3c2-c2cc(F)cc(OC)c2)c1 | inconclusive: 0.282 µM [inhibitor, full curve, poor fit] |  |
| CNCc1cc(C)n(-c2cc(S(=O)(=O)N3CCOCC3)ccc2N2CCCC2)c1C | inconclusive: 0.398 µM [inhibitor, full curve, poor fit] |  |
| CC(=O)c1c(O)c(C)c(O)c2c1OC1=CC(=O)C(C(C)=O)C(=O)[C@@]12C (stereo partly drawn) | inconclusive: 35.5 µM [inhibitor, single point] |  |
| O=C(Nc1ccc(F)c(F)c1)C1CCCN(S(=O)(=O)c2cccc3nonc23)C1 (stereo not drawn) | inactive |  |
| CCN1C/C(=C/c2ccc(N3CCOCC3)cc2)C(=O)/C(=C/c2ccc(N3CCOCC3)cc2)C1 | inconclusive: 31.6 µM [inhibitor, partial curve] |  |
| CCc1ccc(NC(=O)Nc2cc(C(=O)NCC3CCCO3)ccc2N2CC3CC(C2)c2cccc(=O)n2C3)cc1 (stereo not drawn) | inconclusive: 5.01 µM [inhibitor, partial curve, poor fit] |  |

5 neighbouring compounds from above:

| Compound | Potency | activity change, negative = inhibition |
| --- | --- | --- |
| CCOC(=O)c1ccccc1N/C=C/C(=O)c1cccs1 | inconclusive: 35.5 µM [inhibitor, partial curve] |  |
| N/C(Cc1ccc([N+](=O)[O-])cc1)=N\OC(=O)COc1ccccc1Cl |  | inactive: -8.77% |
| Cc1cc(/C=C2\NC(=O)NC2=O)c(C)n1-c1ccc(N2CCOCC2)cc1 | inconclusive: 39.8 µM [inhibitor, single point] |  |
| COc1cccc(-c2sc3ccc(OC)cc3c2-c2cc(F)cc(OC)c2)c1 | inconclusive: 0.282 µM [inhibitor, full curve, poor fit] |  |
| CNCc1cc(C)n(-c2cc(S(=O)(=O)N3CCOCC3)ccc2N2CCCC2)c1C | inconclusive: 0.398 µM [inhibitor, full curve, poor fit] |  |

Further records follow:

| Compound | Potency | activity change, negative = inhibition |
| --- | --- | --- |
| CCN(C[C@H]1N[C@@](Cc2ccccc2)(C(=O)OC)[C@H]2C(=O)N(Cc3ccccc3)C(=O)[C@@H]12)C(C)=O | inconclusive: 39.8 µM [inhibitor, single point] |  |
| Cc1cc2nc3c(=O)n(C)c(=O)n(C)c3nc2cc1N=CN(C)C | inconclusive: 2 µM [inhibitor, partial curve, poor fit] |  |
| O=C(COC(=O)CCC(=O)c1ccc(F)cc1)Nc1ccc2[nH]c(=O)[nH]c2c1 |  | inactive: -17.3% |
| CC(C)(C)c1ccc(C(=O)Nc2ccccc2C(=O)OCc2cc(=O)n3ccsc3n2)cc1 | inconclusive: 5.62 µM [inhibitor, single point] |  |
| CNC(=S)N1N=C2c3ccccc3CCC2C1c1ccccc1Cl (stereo not drawn) | inconclusive: 35.5 µM [inhibitor, single point] |  |
| OC(COc1cccc2ccccc12)CN1CCN(c2ccc(Cl)cc2)CC1 (stereo not drawn) | inconclusive: 44.7 µM [inhibitor, partial curve] |  |
| CC(C)(C)C1CCc2nc(NC(=O)Cc3ccc(Cl)cc3)sc2C1 (stereo not drawn) | inconclusive: 10 µM [inhibitor, full curve, poor fit] |  |
| NNc1nnc2c3cc(F)ccc3n(CCc3ccccc3)c2n1 | inconclusive: 44.7 µM [inhibitor, partial curve] |  |
| COc1cccc(/C=C/C(=O)Nc2ccc(N3CCOCC3)cc2)c1OC |  | inactive: -12.4% |
| CC(C)[C@@H](C(=O)N1CCNCC1)n1cc(CCO)nn1 | inconclusive: 56.2 µM [inhibitor, partial curve, poor fit] |  |
| Cc1ncoc1C(=O)Nc1ncc([N+](=O)[O-])s1 | inconclusive: 20 µM [inhibitor, partial curve, poor fit] |  |
| COCCNC(=S)N/N=C/c1ccc(-c2ccc([N+](=O)[O-])cc2)o1 | inconclusive: 44.7 µM [inhibitor, partial curve] |  |
| Cc1cccc(Cn2nc(C)cc2NC(=O)Cn2cc([N+](=O)[O-])cn2)c1 | inconclusive: 447 µM [inhibitor, partial curve, poor fit] |  |
| CCOc1ccccc1C1c2[nH]c3ccccc3c2C[C@H]2C(=O)N(C3CCN(Cc4ccccc4)CC3)CC(=O)N12 (stereo partly drawn) | inconclusive: 5.62 µM [inhibitor, single point] |  |
| Cc1ccc2occ(CC(=O)Nc3ccc(S(N)(=O)=O)cc3)c2c1 |  | inactive: 9.13% |
| Cc1nnc(SCC2=C(C(=O)O)N3C(=O)C(NC(=O)COc4ccccc4)C3SC2)s1 (stereo not drawn) |  | inactive: -5.49% |
| CCOC(=O)Cn1nnc(-c2ccc([N+](=O)[O-])cc2)n1 | inconclusive: 6.31 µM [inhibitor, partial curve] |  |
| CN1CCC2(CC1)C1CN(C)CC=C1C(C#N)=C(N)C2(C#N)C#N (stereo not drawn) | active: 28.2 µM |  |
| N#C/C(=C\c1ccc(N2CCOCC2)o1)c1ccccc1 | inconclusive: 35.5 µM [inhibitor, single point] |  |
| CCCOc1ccccc1C(=O)N1CCC(c2nc3ccccc3s2)CC1 | inconclusive: 1.58 µM [inhibitor, partial curve, poor fit] |  |
| C=CCc1c(C)nc2nc(SCC(=O)Nc3ccccc3CC)nn2c1C | inconclusive: 0.708 µM [inhibitor, full curve] |  |
